Consider nine substances from paper PMC12149670.

Amino acid sequences for entries named in this document (tags omitted).
UniProt P56546: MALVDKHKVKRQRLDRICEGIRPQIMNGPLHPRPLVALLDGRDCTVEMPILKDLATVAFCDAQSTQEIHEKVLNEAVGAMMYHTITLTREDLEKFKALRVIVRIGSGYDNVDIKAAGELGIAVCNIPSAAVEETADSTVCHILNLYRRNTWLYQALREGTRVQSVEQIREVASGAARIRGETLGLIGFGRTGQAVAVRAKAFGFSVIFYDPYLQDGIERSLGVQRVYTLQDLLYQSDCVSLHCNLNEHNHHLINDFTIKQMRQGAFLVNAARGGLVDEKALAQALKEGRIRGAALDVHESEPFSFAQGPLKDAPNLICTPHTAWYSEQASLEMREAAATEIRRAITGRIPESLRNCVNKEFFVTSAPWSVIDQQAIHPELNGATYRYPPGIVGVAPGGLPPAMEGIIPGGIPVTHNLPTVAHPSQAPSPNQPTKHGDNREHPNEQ
UniProt O35381: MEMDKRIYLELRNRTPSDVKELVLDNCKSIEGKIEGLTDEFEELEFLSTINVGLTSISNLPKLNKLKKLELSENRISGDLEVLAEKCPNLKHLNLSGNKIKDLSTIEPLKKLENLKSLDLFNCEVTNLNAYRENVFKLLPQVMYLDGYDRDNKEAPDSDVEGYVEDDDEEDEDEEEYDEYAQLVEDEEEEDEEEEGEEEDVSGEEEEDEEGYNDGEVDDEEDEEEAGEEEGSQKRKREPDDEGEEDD
UniProt Q8CGN4: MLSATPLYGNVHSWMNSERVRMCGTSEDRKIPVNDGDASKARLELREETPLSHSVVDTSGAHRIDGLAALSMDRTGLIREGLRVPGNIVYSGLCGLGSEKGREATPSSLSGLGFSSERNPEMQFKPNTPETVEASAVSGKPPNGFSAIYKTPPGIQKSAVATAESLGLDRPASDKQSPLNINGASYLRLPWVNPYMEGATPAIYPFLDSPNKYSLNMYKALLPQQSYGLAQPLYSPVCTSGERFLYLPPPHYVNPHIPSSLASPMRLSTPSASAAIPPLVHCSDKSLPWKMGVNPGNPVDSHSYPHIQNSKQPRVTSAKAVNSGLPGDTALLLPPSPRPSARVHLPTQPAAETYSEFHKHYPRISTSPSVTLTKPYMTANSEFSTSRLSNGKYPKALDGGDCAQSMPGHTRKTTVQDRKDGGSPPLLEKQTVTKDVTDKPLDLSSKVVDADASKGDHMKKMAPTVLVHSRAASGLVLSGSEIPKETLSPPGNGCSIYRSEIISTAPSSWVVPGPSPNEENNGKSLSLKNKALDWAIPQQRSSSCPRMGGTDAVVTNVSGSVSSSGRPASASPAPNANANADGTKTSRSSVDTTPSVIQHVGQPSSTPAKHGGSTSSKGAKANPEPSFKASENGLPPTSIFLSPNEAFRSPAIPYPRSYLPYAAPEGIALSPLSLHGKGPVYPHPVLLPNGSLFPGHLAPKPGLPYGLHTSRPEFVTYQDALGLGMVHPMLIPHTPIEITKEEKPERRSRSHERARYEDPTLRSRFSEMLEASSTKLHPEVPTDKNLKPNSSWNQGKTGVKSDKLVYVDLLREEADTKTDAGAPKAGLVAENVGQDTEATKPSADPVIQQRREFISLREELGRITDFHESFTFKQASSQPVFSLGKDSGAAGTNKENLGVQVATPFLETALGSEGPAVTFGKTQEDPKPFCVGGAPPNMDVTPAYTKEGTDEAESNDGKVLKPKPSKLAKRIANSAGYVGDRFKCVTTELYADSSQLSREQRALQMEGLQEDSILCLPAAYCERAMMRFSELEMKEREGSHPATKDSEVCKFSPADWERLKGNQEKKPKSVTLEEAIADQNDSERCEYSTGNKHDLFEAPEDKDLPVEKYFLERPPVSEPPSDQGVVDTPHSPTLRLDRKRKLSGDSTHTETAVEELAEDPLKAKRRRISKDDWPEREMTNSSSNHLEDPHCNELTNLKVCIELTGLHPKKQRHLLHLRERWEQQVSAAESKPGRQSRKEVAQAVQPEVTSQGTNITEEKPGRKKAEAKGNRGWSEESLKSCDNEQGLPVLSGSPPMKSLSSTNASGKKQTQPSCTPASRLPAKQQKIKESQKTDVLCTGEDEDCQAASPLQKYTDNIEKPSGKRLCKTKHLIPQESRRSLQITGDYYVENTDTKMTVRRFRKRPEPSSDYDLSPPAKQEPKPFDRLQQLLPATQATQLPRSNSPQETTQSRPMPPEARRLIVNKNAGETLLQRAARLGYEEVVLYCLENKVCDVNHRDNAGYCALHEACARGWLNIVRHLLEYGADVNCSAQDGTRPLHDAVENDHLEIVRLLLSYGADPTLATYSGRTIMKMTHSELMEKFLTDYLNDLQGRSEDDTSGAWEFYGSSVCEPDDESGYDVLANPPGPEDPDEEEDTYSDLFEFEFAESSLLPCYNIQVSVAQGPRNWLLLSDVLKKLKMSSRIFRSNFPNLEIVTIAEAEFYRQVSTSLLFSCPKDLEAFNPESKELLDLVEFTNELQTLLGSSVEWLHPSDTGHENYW
UniProt P28033: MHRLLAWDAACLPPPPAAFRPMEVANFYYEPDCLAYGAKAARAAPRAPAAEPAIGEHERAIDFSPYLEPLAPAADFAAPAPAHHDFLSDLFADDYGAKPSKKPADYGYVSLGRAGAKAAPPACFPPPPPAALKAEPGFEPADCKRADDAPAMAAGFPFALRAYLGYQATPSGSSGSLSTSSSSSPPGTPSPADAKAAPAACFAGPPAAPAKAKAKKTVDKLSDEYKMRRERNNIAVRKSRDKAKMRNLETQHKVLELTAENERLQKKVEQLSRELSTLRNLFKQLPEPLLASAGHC
UniProt P05627: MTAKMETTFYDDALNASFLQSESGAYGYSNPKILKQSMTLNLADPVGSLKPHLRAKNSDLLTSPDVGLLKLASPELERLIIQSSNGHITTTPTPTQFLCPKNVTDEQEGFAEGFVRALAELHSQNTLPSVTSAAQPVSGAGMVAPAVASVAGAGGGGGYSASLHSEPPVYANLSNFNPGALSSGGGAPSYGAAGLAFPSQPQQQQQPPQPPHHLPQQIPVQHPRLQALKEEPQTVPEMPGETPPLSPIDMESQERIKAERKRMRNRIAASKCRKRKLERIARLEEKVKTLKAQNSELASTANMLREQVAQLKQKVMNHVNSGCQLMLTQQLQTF
UniProt P25799: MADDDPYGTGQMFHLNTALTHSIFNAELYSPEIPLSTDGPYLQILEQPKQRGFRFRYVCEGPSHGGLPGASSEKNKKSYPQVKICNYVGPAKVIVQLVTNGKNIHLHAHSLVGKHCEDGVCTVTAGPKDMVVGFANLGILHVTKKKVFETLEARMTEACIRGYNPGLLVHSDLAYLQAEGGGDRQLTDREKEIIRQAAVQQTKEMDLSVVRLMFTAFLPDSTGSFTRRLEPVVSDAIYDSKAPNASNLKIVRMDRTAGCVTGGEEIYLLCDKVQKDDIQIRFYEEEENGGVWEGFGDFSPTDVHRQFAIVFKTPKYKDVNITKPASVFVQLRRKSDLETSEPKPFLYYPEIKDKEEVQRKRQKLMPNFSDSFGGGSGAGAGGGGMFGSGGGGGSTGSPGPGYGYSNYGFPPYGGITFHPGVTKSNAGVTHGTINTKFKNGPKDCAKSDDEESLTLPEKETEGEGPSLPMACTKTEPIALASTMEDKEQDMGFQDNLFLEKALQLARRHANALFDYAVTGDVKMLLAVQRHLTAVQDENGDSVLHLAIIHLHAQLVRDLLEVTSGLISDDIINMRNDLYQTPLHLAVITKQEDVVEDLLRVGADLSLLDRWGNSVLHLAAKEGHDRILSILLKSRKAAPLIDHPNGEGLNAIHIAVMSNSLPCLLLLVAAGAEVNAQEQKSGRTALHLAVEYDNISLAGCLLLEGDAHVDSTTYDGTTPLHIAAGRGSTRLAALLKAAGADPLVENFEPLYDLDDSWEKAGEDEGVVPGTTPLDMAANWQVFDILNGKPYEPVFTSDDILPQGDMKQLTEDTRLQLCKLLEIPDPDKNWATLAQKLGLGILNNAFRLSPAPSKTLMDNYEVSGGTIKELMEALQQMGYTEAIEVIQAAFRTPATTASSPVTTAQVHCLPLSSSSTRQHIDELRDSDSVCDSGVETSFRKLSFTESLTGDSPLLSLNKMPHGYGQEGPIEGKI
UniProt Q04207: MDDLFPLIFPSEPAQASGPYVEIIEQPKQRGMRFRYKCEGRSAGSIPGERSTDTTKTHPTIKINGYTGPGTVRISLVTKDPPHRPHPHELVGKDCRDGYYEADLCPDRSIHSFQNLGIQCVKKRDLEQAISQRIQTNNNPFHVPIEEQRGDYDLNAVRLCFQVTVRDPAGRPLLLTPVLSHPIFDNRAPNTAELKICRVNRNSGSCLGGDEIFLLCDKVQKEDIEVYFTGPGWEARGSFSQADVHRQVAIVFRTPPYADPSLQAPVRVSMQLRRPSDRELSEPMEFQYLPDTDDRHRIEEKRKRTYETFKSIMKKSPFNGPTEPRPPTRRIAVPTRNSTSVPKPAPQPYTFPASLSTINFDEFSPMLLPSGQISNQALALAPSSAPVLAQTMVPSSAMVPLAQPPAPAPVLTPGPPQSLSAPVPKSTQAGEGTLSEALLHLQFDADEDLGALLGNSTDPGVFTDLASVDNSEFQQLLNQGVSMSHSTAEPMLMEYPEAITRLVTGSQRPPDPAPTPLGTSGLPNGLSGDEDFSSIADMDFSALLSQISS
UniProt O88286: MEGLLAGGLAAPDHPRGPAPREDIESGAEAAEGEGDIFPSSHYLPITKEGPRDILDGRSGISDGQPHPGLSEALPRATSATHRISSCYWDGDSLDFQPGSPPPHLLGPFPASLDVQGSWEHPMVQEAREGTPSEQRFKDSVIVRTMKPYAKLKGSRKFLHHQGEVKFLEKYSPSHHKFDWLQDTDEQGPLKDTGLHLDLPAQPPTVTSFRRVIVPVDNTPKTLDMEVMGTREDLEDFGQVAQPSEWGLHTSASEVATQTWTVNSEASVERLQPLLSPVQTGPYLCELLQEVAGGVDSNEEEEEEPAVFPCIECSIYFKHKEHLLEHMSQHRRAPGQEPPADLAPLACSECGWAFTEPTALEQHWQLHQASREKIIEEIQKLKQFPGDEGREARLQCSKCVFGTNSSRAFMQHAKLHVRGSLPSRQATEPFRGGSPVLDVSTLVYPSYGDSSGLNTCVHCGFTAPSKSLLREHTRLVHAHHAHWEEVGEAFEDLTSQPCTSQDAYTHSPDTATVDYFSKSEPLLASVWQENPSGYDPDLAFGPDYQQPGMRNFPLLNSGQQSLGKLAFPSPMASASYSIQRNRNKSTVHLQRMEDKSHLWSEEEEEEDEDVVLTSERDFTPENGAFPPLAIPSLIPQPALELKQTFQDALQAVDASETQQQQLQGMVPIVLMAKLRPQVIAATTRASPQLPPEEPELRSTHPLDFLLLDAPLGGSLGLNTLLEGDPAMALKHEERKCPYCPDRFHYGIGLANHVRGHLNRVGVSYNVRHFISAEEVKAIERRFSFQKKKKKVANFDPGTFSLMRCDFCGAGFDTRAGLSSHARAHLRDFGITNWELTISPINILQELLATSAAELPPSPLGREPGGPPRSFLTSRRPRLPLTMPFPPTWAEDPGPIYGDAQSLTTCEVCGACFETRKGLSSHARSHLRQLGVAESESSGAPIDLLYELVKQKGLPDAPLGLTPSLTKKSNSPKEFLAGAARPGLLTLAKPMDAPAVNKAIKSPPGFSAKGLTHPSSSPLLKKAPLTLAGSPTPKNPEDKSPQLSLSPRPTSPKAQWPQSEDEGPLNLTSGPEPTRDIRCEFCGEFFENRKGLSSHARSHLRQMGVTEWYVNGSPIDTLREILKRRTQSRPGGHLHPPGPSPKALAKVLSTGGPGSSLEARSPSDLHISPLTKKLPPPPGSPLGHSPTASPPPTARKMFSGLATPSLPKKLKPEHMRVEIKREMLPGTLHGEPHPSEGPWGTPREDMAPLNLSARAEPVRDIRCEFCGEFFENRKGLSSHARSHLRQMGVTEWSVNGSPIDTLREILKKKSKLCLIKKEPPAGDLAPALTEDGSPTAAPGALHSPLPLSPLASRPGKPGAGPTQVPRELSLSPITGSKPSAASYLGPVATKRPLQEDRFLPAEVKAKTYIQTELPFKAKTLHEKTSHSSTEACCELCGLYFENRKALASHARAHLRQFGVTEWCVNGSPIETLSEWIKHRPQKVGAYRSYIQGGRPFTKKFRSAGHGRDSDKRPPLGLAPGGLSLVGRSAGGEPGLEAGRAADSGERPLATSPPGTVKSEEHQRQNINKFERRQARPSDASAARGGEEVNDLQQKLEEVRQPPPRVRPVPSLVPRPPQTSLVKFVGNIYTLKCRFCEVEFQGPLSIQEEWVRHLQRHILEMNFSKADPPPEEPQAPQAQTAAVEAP

Assay [1] has as its target CTBP2 wt (stably re-expressed in J774.1 Ctbp dKO cells) (human) (UniProt P56545). Briefly: affinity purification with mass spectrometry; ChIP-MS for CTBP2 (anti-CTBP2) after LPS stimulation in J774.1 Ctbp dKO cells re-expressing CTBP2 wt or CTBP2 mono; cross-linked chromatin; wt compared with mono and with IgG (fold change > 4 and Padj < 0.05); n = 3 technical replicates.

In assay [2] the target is C-terminal binding protein 2 (CTBP2), endogenous in murine BMDMs (mouse (endogenous in BMDMs)) (UniProt P56546). The experiment in a line: affinity purification with mass spectrometry; ChIP-MS: BMDMs treated with LPS (100 ng/ml, 3 h) or vehicle, fixed with 2 mM DSG and 1% formaldehyde, sonicated chromatin precipitated with anti-CTBP2 (#61261; Active Motif) against an IgG control; washes with 140 mM and 500 mM NaCl buffers; enriched: fold change > 4 and Padj < 0.05; n = 3.

Assay [3] shares this target. The experiment in a line: affinity purification with mass spectrometry; differential ChIP-MS for CTBP2, LPS-treated against vehicle-treated BMDMs (absolute fold change > 4 and Padj < 0.05); the LPS condition.

These are yes or no findings as the source states them, for the method shown. In cells and extracts the contact can be indirect. Here binding means that the protein was enriched with, or labelled near, the bait; the list need not be complete. For some assays here: A no says only that the protein was not detected with the bait.

As for ANP32A (from UniProt O35381 1-247), the binding result in assay [1] is recorded as “binds”.
With BCOR (from UniProt Q8CGN4 1-1759), the binding entry in assay [2] is listed as “binds”.
The same measure, in the same setting: as for CEBPB (from UniProt P28033 1-296), the entry is “binds”.
With “JUN, endogenous in murine BMDMs (from UniProt P05627 1-334)”, the binding entry in assay [3] is “no binding (only after LPS stimulation)”; in assay [2] it was “binds”.
In the case of NFΚB1 (from UniProt P25799 1-971), in assay [2], the binding entry is given as “binds”.
In the case of REL (from UniProt P15307 1-587), the binding entry in assay [2] is listed as “binds”.
“RELA, endogenous in murine BMDMs (from UniProt Q04207 1-549)”: in assay [2], the binding entry is reported as “binds”.
As to WIZ (from UniProt O88286 1-1684), the binding result in assay [2] and in assay [1] was “binds” each time.
Take ZFP217 (from UniProt Q3U0X6 1-1041): the binding result in assay [2] is “binds”.
